In patent publication US20220143204A1 one finds binding data, which are given here for three molecules.

The chains behind the UniProt entries cited, without tags or fusion partners. Residues count along the entry.
UniProt P11717, residues 41-2491: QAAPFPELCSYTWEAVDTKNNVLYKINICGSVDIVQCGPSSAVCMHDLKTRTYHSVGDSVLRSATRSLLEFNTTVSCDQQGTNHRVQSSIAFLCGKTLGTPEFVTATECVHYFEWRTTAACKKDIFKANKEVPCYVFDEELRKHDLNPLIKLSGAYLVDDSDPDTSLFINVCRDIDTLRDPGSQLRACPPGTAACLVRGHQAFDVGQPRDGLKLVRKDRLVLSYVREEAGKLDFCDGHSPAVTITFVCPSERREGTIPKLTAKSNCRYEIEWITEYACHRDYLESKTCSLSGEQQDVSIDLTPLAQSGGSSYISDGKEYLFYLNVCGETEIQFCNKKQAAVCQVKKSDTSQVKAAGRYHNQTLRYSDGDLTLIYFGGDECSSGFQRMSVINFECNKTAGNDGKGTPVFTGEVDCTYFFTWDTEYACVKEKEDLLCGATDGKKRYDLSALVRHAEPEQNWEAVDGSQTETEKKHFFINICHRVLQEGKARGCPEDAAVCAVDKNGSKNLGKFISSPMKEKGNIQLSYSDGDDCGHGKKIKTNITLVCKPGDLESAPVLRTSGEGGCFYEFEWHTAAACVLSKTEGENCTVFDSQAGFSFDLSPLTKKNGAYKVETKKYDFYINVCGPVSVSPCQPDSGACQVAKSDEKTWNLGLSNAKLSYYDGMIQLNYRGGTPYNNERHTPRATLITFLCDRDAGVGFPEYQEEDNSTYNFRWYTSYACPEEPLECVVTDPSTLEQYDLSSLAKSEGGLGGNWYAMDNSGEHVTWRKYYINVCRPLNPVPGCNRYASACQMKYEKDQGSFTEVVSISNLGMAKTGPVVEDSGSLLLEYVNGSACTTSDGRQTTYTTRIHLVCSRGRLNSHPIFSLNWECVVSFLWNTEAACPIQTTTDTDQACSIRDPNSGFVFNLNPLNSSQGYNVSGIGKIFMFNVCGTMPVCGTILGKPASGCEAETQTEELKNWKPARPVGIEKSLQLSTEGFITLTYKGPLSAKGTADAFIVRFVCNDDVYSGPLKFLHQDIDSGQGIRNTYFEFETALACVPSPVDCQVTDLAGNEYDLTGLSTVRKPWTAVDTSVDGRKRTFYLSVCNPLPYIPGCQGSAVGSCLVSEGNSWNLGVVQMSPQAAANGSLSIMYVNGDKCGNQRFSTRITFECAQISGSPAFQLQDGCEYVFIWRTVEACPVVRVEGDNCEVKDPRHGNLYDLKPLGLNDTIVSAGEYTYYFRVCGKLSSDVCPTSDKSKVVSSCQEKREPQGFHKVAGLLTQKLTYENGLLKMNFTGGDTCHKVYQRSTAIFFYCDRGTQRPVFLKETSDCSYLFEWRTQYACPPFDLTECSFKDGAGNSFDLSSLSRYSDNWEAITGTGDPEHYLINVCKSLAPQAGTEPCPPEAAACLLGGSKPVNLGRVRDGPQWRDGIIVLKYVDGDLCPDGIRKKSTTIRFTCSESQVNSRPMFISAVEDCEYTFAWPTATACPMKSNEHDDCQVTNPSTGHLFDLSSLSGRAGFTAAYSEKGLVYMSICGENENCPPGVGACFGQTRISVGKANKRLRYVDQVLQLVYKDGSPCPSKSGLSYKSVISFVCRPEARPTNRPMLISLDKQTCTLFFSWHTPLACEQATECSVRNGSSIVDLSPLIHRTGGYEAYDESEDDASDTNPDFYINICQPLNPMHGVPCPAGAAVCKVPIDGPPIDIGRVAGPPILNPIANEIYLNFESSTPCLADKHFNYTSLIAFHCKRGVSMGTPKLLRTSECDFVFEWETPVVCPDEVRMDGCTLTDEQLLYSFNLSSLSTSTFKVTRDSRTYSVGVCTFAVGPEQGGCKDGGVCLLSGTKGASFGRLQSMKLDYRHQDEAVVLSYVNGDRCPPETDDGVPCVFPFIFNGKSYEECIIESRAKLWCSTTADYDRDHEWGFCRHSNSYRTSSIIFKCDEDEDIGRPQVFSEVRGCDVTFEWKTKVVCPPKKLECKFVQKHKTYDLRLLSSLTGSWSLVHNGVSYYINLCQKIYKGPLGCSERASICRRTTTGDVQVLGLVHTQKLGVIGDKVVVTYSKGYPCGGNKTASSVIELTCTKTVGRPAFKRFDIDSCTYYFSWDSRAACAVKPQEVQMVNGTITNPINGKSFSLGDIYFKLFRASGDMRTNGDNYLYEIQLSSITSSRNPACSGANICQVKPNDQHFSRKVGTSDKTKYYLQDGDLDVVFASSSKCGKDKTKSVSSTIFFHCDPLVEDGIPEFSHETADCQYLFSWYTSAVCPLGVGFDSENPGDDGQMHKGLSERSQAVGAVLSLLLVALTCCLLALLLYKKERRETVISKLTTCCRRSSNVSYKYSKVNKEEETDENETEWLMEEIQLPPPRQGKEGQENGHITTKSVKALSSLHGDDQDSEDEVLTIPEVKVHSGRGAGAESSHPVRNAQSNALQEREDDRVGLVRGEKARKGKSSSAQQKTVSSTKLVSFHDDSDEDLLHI

Experiment [1] has as its target rat IGF2R on cells (rat). Kind of experiment: binding assay of the IRDye800CW conjugate on SCC VII cells over-expressing rat IGF2R, fluorescence intensity.
In experiment [2] the target is rat IGF2R on cells (rat). Kind of experiment: staining of liver cryo-sections of BDL rats, confocal microscopy.
Experiment [3] addresses human IGF2R on cells (human) (UniProt P11717). Kind of experiment: binding assay of the IRDye800CW conjugate on SCC VII cells transfected with human IGF2R, fluorescence at 800 nm.

Results are given in words; binding and its absence hold for the method and conditions named. Some results given as binding are weak or reduced against the parent protein; the word gives no strength.

B1: 13F11-13E8-IRDye800CW (VHH, not shown: small tags and cut ends)
chain: EVQLVESGGRLVQPGDSLRLSCAASGRTFSDNAMGWFRQAPGKERRFVAGISWAGGSTYYSDSVKGRFTISRDNAKNTVYLQMNSLKPEDTAVYYCAAGLRAWVQRMPKDYNYWGQGTQVTVSSGGGGSGGGGSGGGGSEVQLVESGGGLVQAGGSLRLSCAASRSISPMGWYRQAPGKQRELVAIMPSSGPPIYADSVQGRFTISRDNAKNTVYLQMNSLKPEDTAVYYCNVGGGYWGQGTQVTVSS
modifications: IRDye800CW by maleimide chemistry on the C-terminal free cysteine
Take B1: the binding entry in the experiment with rat IGF2R on cells (rat) [1] is recorded as “binds”.

B2: 13F11-13E8 conjugated to Alexa Fluor 647 (VHH, not shown: small tags and cut ends)
chain: EVQLVESGGRLVQPGDSLRLSCAASGRTFSDNAMGWFRQAPGKERRFVAGISWAGGSTYYSDSVKGRFTISRDNAKNTVYLQMNSLKPEDTAVYYCAAGLRAWVQRMPKDYNYWGQGTQVTVSSGGGGSGGGGSGGGGSEVQLVESGGGLVQAGGSLRLSCAASRSISPMGWYRQAPGKQRELVAIMPSSGPPIYADSVQGRFTISRDNAKNTVYLQMNSLKPEDTAVYYCNVGGGYWGQGTQVTVSS
modifications: Alexa Fluor 647 by maleimide chemistry on the C-terminal free cysteine
For B2, in the experiment with rat IGF2R on cells (rat) [2], the binding entry is given as “binds”.

B3: SP28P-SP26P-IRDye800CW (VHH, not shown: small tags and cut ends)
chain: EVQLVESGGGLVQAGGSLRLSCAASGSIVSFNGINWYRQAPGKQREWVGGITQGGNTMYADSVRGRFTISRDNTKNTMYLQMNSLKPEDTAVYYCRRPPVASWGQGTQVTVSSGGGGSGGGGSGGGGSEVQLVESGGGLVQAGGSLRLSCAASGRSFSSSVMGWFRQTPGKEREFVAATRWTAASTHYADSVKGRFTISRDHAENAVFLQMNSLKPEDTAVYYCAAGNYLDTAQYRYNYWGQGTQVTVSS
modifications: IRDye800CW by maleimide chemistry on the C-terminal free cysteine
For the molecule B3, the binding entry in experiment [3] was “no binding (tested: 500 nM)”.
